# PubChem BioAssay AID1224828 – NIAID, 2016
# Aim: 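Knock-downs that increase or decrease LPS-induced p65 nuclear translocation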 (primary screen)
# Cells: mouse RAW264.7 G9 macrophage reporter cells (GFP-p65, Tnf promoter-mCherry)
# Reagent: siRNA pool against mouse genes, 100 nM
# Time to read-out: 2 days siRNA transfection, then 40 min LPS before fixation
# Challenge: LPS (Salmonella minnesota R595) at 10 ng/ml
# Measured: 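Microscopy ratio of nuclear to perinuclear-ring GFP-p65 signal, scaled to the plate median; gene score is the average of two replicate robust z-scores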
# Reading the numbers: p65 translocation robust z-score: higher = more nuclear NF-kappaB p65 after LPS than the plate median; nuclear/cytoplasmic p65 ratio: higher = more nuclear NF-kappaB p65
# Rule for the call: 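Called active when z exceeds 3.3 or falls under -1.56 (median of Tlr4 controls), giving activity score of at least 50; no calls for control wells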
# Meaning of the calls: active = hit (p65 shift raised or lowered); inactive = no clear change
# This is a random part of about 17,000 deposited reagents. Of all reagents, 762 (4.5%) got an active call. 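Active calls include both raised and lowered p65 entry, mostly lowered; wells with fewer than 50 cells lack a z-score.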 Raw values vary from plate to plate and are shown uncorrected. The numbers tell different reagents against one gene apart. A reagent listed more than once was tested more than once; the source does not tell the runs apart.
target gene,reagent,p65 translocation robust z-score,"nuclear/cytoplasmic p65 ratio, rep 1","nuclear/cytoplasmic p65 ratio, rep 2",low cell count flag,outcome
1700013G24Rik,1,-0.78,1.29,1.16,enough cells to score,inactive
Abcb6,1,1.29,1.69,2,enough cells to score,inactive
Entpd2,1,1.72,1.86,1.69,enough cells to score,inactive
Fbxo2,1,-0.36,1.51,1.31,enough cells to score,inactive
Stk11,1,-1.59,1.63,1.18,enough cells to score,active
Slc44a2,1,0.06,1.56,1.44,enough cells to score,inactive
Mapk3,1,0.09,1.73,1.37,enough cells to score,inactive
Fbxl15,1,-0.74,1.52,1.33,enough cells to score,inactive
Prokr1,1,-1.32,1.31,1.4,enough cells to score,inactive
Mocs2,1,0.3,1.49,1.37,enough cells to score,inactive
Ntng1,1,0.31,1.6,1.72,enough cells to score,inactive
B430217B02Rik (retired record),1,-0.55,1.58,1.65,enough cells to score,inactive
Pbdc1,1,-1.07,1.27,1.31,enough cells to score,inactive
Ranbp1,1,-0.76,1.42,1.4,enough cells to score,inactive
Nkx2-9,1,0.95,1.88,1.65,enough cells to score,inactive
Tmem176a,1,,1.39,1.55,fewer than 50 cells per well; well left out of scoring,inactive
Ttyh1,1,-1.11,1.29,1.06,enough cells to score,inactive
Aplnr,1,-0.06,1.54,1.53,enough cells to score,inactive
Osgep,1,-0.08,1.42,1.24,enough cells to score,inactive
Haus1,1,-0.66,1.28,1.3,enough cells to score,inactive
Xpnpep2,1,-0.47,1.49,1.4,enough cells to score,inactive
Rgs7,1,1.15,1.59,1.35,enough cells to score,inactive
Rgs7,1,0.88,1.38,1.71,enough cells to score,inactive
Dck,1,,1.6,1.38,fewer than 50 cells per well; well left out of scoring,inactive
Or51f1d,1,,1.31,1.22,fewer than 50 cells per well; well left out of scoring,inactive
Pcdhb4,1,0.63,1.53,1.31,enough cells to score,inactive
Bnip5,1,1.26,1.45,1.42,enough cells to score,inactive
Ak8,1,0.53,1.33,1.45,enough cells to score,inactive
Reg3d,1,-0.03,1.61,1.37,enough cells to score,inactive
A930033H14Rik,1,0.75,1.41,1.71,enough cells to score,inactive
Aadacl4fm1,1,-0.95,1.3,1.41,enough cells to score,inactive
Myo1b,1,-0.03,1.77,1.6,enough cells to score,inactive
Hdhd2,1,-0.24,1.6,1.55,enough cells to score,inactive
Fam131a,1,,1.11,1.17,fewer than 50 cells per well; well left out of scoring,inactive
Swt1,1,-2.52,1.06,1.05,enough cells to score,active
Sgms1,1,0.62,1.33,1.63,enough cells to score,inactive
Eef1b2,1,0.4,1.59,1.36,enough cells to score,inactive
Sart1,1,-0.2,1.56,1.42,enough cells to score,inactive
Ret,1,-1.21,1.48,1.24,enough cells to score,inactive
Zfp395,1,-0.53,1.5,1.37,enough cells to score,inactive
Aars1,1,1.1,1.47,1.73,enough cells to score,inactive
Pam,1,0.32,1.42,1.33,enough cells to score,inactive
Grin2b,1,0.5,1.47,1.47,enough cells to score,inactive
Wdr48,1,0.41,1.55,1.53,enough cells to score,inactive
Tcta,1,0.18,1.66,1.62,enough cells to score,inactive
Upb1,1,,1.52,1.28,fewer than 50 cells per well; well left out of scoring,inactive
Gmfg,1,,1.8,1.31,fewer than 50 cells per well; well left out of scoring,inactive
B230206H07Rik,1,0.86,1.6,1.76,enough cells to score,inactive
Crlf3,1,-1.02,1.32,1.26,enough cells to score,inactive
Vps18,1,-0.72,1.31,1.15,enough cells to score,inactive
Ppp3r1,1,-1.02,1.27,1.35,enough cells to score,inactive
Tpm2,1,0.15,1.49,1.57,enough cells to score,inactive
Jag1,1,0.19,1.46,1.45,enough cells to score,inactive
Foxn1,1,1.2,1.61,1.51,enough cells to score,inactive
Usp30,1,-0.21,1.46,1.49,enough cells to score,inactive
Zfp148,1,0.81,1.62,1.62,enough cells to score,inactive
Abcb1b,1,0.14,1.61,1.73,enough cells to score,inactive
Pum1,1,-0.69,1.28,1.15,enough cells to score,inactive
Hsd3b5,1,1.04,1.71,1.56,enough cells to score,inactive
Castor2,1,0.53,1.61,1.59,enough cells to score,inactive
Usp21,1,-0.38,1.45,1.45,enough cells to score,inactive
Lrrc26,1,0.47,1.68,1.89,enough cells to score,inactive
Isoc1,1,,1.3,1.45,fewer than 50 cells per well; well left out of scoring,inactive
Foxi1,1,1.29,1.7,1.44,enough cells to score,inactive
Cnot9,1,0.21,1.56,1.36,enough cells to score,inactive
Tubgcp3,1,0.57,1.72,1.46,enough cells to score,inactive
Arhgap17,1,1.46,1.68,1.85,enough cells to score,inactive
Cmklr2,1,-0.46,1.45,1.5,enough cells to score,inactive
Or2ag18,1,,1.43,1.21,fewer than 50 cells per well; well left out of scoring,inactive
Depp1,1,-1.29,1.28,1.34,enough cells to score,inactive
Rnf32,1,,1.07,0,fewer than 50 cells per well; well left out of scoring,inactive
Tmem126a,1,3.5,1.46,1.87,enough cells to score,active
Ppp2r2d,1,,1.48,1.08,fewer than 50 cells per well; well left out of scoring,inactive
Gpr146,1,,1.5,1.76,fewer than 50 cells per well; well left out of scoring,inactive
Gpr146,2,-1.32,1.3,1.43,enough cells to score,inactive

Active calls (from the list above):
target gene,reagent,p65 translocation robust z-score,"nuclear/cytoplasmic p65 ratio, rep 1","nuclear/cytoplasmic p65 ratio, rep 2",low cell count flag,outcome
Stk11,1,-1.59,1.63,1.18,enough cells to score,active
Swt1,1,-2.52,1.06,1.05,enough cells to score,active
Tmem126a,1,3.5,1.46,1.87,enough cells to score,active
